Experiment [1] has as its target Flag-tagged KIF11 (human) (UniProt P52732). Description: reciprocal co-immunoprecipitation (anti-Flag M2 agarose / anti-myc agarose) and immunoblot, co-transfected A549 cells. On the technique in general: In western blotting, separated proteins are transferred to a membrane and probed.
The target is the same in experiment [2]. As to the kind of experiment: reciprocal co-immunoprecipitation and immunoblot, co-transfected A549 cells (FIG. 1a).

Sequences of proteins named here, by UniProt entry; tags and fusion partners are left off. A change or cut given only in a name is not applied to a line headed by its entry.
UniProt P52732: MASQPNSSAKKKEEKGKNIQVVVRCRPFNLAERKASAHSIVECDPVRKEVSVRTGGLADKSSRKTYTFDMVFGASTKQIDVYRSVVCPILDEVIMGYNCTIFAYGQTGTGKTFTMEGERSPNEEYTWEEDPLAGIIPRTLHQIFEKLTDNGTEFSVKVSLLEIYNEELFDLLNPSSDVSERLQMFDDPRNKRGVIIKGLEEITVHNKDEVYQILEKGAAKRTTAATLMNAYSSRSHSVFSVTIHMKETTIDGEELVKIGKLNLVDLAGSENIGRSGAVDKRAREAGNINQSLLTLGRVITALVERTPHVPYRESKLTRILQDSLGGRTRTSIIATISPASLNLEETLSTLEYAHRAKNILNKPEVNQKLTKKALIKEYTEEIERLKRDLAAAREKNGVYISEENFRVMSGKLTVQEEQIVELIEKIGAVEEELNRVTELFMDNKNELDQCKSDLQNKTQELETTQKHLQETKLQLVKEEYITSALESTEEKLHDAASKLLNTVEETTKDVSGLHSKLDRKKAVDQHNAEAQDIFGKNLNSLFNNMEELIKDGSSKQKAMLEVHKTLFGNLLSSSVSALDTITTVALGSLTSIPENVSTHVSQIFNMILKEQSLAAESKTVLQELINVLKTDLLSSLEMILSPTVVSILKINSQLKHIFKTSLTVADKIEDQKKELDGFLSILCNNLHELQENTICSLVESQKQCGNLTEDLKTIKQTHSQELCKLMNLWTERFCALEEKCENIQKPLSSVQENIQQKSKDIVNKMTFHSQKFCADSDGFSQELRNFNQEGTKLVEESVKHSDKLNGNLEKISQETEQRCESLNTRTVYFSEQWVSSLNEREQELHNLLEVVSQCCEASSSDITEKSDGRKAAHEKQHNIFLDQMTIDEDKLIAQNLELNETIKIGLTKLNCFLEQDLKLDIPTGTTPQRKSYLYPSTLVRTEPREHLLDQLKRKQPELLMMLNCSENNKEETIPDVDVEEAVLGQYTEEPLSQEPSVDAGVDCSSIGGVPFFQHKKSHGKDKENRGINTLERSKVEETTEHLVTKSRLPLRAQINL
UniProt O00425: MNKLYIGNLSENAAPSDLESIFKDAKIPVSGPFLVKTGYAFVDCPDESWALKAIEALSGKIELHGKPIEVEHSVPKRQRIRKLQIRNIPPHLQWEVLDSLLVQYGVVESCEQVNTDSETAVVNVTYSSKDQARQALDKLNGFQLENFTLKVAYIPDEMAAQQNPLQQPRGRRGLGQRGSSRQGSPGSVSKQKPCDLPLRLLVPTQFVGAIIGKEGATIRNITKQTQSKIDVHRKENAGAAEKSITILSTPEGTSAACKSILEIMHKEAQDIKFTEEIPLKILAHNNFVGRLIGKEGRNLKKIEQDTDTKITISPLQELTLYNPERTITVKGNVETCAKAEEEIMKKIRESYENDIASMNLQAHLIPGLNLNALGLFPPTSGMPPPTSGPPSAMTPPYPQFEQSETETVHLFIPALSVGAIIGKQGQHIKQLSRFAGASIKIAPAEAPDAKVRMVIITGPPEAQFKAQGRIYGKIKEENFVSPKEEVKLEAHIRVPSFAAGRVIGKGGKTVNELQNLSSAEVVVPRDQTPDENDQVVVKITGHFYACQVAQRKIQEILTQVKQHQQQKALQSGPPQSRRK

No constants are given. Whether binding was seen depends on the method and setting. Binding seen in cells or lysates may run through a third protein. Some binding calls cover weakened binding; strength is not graded here.

Consider “myc-tagged KOC1 (from UniProt O00425 1-579)”, for which the binding entry in experiment [1] and in experiment [2] was “binds” throughout.

The values are drawn from patent US20080050378A1.
